Measured values: patent publication US20150225704A1
These are yes or no findings as the source states them, for the method shown. For some of these results: Binding seen in cells or lysates may run through a third protein. Some entries that bind do so weakly or less than the wild type. For some of these results: Where a sequence is shown, tags or fusion partners need not be part of it.

Sequences of proteins named here, by UniProt entry; tags and fusion partners are left off.
UniProt O14733: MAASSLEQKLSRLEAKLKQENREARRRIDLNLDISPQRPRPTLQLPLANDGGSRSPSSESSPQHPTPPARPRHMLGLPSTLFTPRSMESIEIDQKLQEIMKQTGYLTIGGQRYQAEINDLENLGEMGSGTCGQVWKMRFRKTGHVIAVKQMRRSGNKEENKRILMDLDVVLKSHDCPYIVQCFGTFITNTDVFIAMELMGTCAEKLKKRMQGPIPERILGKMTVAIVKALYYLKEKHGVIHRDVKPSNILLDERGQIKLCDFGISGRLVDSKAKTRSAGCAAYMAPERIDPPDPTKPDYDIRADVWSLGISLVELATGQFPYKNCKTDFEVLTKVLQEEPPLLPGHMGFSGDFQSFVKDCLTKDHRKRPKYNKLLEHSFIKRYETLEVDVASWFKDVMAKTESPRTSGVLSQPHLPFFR
UniProt P53779: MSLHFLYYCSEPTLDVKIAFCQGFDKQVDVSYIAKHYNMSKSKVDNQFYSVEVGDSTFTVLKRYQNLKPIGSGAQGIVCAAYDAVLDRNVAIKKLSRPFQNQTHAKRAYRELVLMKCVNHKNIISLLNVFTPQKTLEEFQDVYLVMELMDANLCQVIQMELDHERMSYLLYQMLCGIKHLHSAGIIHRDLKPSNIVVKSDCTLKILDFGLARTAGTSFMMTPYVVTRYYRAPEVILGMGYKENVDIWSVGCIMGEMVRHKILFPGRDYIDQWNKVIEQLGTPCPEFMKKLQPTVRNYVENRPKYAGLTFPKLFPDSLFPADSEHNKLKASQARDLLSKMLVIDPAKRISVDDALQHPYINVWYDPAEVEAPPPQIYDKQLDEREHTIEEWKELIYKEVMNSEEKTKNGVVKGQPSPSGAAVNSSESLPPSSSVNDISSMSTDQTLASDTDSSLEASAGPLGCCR
UniProt P45983: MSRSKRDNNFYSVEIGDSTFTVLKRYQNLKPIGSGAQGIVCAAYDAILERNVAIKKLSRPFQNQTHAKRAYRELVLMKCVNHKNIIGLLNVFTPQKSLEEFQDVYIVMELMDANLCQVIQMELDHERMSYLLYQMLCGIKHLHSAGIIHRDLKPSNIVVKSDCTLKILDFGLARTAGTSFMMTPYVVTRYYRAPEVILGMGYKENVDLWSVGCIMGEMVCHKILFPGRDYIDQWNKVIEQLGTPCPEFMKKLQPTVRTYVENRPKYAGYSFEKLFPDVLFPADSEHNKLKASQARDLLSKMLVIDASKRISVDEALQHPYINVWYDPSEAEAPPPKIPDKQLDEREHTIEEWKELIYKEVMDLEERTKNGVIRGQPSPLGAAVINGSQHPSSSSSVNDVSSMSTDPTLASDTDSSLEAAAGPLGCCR

Key:
[1] = target: GST-zD17 1-310 (cytosolic domain CD1) (UniProt Q8IUH5); assay: affinity binding of purified JNK3 to blotted GST-tagged cytosolic domains
[2] = target: T1, GST-zD17 190-210 (motif-E fused with GST) (UniProt Q8IUH5); assay: purified GST fusions incubated with JNK3
T1 sequence (looked up): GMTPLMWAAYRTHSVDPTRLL

[3] = target: myc-tagged full-length palmitoyl acyl transferase zinc-finger DHHC type containing 17 (zD17) (UniProt Q8IUH5); assay: in vitro affinity binding assay with purified proteins
[4] = target: myc-tagged full-length palmitoyl acyl transferase zinc-finger DHHC type containing 17 (zD17) (UniProt Q8IUH5); assay: co-immunoprecipitation, HEK293 cells
[5] = target: myc-tagged full-length palmitoyl acyl transferase zinc-finger DHHC type containing 17 (zD17) (UniProt Q8IUH5); assay: co-immunoprecipitation, HEK293 cells (GFP-JNK3 in anti-myc zD17 immunoprecipitates)
FLAG-MKK7 wt = FLAG-MKK7 wt (UniProt O14733); assay: co-immunoprecipitation, HEK293 cells

With “purified JNK3 (GST-JNK3 from E. coli, GST removed with thrombin) (from UniProt P53779 1-464) (enzyme)” the binding [1] was “binds”, the binding [2] was “binds” and the binding [3] was “binds”.
“GFP-JNK2 expressed in HEK293 cells (from UniProt P45984 1-424) (enzyme)” was tested, and the binding [4] was “binds”.
For “GFP-JNK3 (c-jun N-terminal kinase 3) expressed in HEK293 cells (from UniProt P53779 1-464) (enzyme)”, the binding [5] was “binds”.
“myc-tagged full-length palmitoyl acyl transferase zinc-finger DHHC type containing 17 (zD17) (from UniProt Q8IUH5 1-632) (enzyme)” was tested, and the binding (FLAG-MKK7 wt) was “binds”.
For “GFP-JNK1 expressed in HEK293 cells (from UniProt P45983 1-427) (enzyme)”, the binding [4] was “binds”.
